Laboratory results reported in article doi:10.1101/2023.06.23.545108.
These are yes or no findings as the source states them, for the method shown. Binding seen in cells or lysates may run through a third protein. Some results given as binding are weak or reduced against the parent protein; the word gives no strength. For part of these data: Sequences can lack the tags named with a protein.

The chains behind the UniProt entries cited, without tags or fusion partners.
UniProt Q15717, whole entry: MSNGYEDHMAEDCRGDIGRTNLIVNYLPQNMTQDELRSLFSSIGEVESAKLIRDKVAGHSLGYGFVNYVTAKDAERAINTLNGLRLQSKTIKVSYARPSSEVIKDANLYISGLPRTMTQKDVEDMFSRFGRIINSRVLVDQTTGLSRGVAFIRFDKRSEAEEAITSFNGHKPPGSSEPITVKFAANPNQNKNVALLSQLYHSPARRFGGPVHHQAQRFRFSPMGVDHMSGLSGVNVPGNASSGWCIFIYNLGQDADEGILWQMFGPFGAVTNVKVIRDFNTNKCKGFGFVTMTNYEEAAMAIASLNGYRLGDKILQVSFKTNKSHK
UniProt Q04206, whole entry: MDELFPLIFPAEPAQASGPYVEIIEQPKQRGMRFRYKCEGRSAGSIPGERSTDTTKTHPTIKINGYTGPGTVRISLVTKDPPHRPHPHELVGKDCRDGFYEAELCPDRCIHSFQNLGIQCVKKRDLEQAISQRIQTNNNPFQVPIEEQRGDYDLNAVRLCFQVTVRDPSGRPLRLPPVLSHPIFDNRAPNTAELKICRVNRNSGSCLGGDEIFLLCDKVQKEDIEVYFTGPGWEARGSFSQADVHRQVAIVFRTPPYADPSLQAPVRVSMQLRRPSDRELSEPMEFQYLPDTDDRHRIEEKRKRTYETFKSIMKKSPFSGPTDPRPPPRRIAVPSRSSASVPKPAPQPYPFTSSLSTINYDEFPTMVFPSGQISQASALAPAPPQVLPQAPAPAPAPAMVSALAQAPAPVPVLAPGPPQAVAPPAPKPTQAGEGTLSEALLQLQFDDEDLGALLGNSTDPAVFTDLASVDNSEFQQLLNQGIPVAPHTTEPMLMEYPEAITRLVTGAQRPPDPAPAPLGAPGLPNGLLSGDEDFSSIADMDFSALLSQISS
UniProt Q8N884, whole entry: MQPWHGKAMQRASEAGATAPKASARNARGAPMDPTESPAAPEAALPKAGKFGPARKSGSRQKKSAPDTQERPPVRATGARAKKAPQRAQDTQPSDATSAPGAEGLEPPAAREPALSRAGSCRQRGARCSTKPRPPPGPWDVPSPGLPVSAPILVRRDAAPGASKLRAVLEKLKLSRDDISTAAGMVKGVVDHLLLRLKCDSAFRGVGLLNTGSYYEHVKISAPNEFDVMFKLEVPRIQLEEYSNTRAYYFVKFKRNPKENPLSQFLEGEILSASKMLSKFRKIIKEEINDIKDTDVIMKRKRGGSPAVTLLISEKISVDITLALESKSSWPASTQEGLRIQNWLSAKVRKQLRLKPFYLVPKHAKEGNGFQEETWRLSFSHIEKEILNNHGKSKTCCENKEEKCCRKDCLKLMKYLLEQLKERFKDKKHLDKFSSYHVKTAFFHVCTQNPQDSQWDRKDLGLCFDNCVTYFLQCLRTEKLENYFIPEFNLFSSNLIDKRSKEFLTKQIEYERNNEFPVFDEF

Tests used:
[1] = molecular target: T1, hnRNPM-GFP (heterogeneous nuclear ribonucleoprotein M, C-terminally GFP-tagged) (UniProt P52272); assay: co-IP
T1 sequence: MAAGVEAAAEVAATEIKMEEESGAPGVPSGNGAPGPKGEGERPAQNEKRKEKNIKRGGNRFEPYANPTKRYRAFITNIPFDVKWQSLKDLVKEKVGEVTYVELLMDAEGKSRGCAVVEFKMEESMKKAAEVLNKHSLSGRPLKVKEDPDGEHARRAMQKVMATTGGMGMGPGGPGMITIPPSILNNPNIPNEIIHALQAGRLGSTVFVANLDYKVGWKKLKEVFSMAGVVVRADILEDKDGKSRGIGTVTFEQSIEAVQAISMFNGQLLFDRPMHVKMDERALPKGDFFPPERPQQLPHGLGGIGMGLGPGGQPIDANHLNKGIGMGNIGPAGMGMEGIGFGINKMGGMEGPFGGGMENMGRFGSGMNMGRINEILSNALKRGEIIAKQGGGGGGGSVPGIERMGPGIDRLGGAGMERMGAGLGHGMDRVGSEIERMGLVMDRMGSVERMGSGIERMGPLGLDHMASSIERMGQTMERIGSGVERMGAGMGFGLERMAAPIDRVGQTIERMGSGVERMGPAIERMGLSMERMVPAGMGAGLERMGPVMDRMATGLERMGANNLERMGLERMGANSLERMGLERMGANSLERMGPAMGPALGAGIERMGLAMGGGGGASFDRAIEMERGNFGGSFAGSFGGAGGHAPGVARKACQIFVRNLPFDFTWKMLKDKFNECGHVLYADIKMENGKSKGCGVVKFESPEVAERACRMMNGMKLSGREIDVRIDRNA

[2] = molecular target: T1, hnRNPM-GFP (heterogeneous nuclear ribonucleoprotein M, C-terminally GFP-tagged); assay: proximity ligation
ELAVL1-FLAG = ELAVL1-FLAG (UniProt Q15717); assay: co-IP

Substance	binding [1]	binding [2]	binding (ELAVL1-FLAG)
ELAV-like protein 1 (ELAVL1), endogenous in THP-1 (from UniProt Q15717 1-326)	binds	binds	–
NF-κB p65, endogenous in HEK293FT (from UniProt Q04206 1-551)	–	–	binds
NF-κB p65, endogenous in THP-1 (from UniProt Q04206 1-551)	binds	–	–

Second part, the substance after the results:

binding [1]	binding [2]	binding (ELAVL1-FLAG)	Substance
binds	–	–	NF-κB p65 phosphorylated at Ser536 (NF-κB pp65-Ser536), endogenous in THP-1 (from UniProt Q04206 1-551)
no binding	–	–	cyclic GMP-AMP synthase (cGAS), endogenous in THP-1 (from UniProt Q8N884 1-522)
